# Library screen at single concentrations

Each number is a percent effect as filed.
How 0% and 100% were set is not recorded. Most values in the screen are low, and negative values occur.
This is an unselected part of the compounds tested.
Two or more numbers in one place are separate tests of the same structure; such repeats can differ widely.

A: 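Whole-cell growth test on Mycobacterium tuberculosis, read after 4 days in a medium based on cholesterol and the lipid DPPC; the read-out is not stated. Concentration: 50 µM. Higher reads as more growth inhibition (inferred: compounds with an IC50 in retests scored well above the rest). About 69,000 compounds were tested under these conditions; 0.54% (about 370) showed 50% or more at least once.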
B: 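Whole-cell growth test on Mycobacterium tuberculosis, read after 3 days in glucose-containing 7H9 medium; the read-out is not stated. Tested at 50 µM. Higher reads as more growth inhibition (inferred: compounds with an IC50 in retests scored well above the rest). About 69,000 compounds were tested under these conditions; 1.1% (about 760) showed 50% or more at least once.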

{"compound": "Cc1c(CS(C)(=O)=O)cccc1NC(=O)CC1CCCC1", "A": 5.877, "B": "-0.5975 & 12.12"}
{"compound": "CS(=O)(=O)N1CCC(NC(=O)COc2ccc(Cl)c(Cl)c2)CC1", "A": -12.18, "B": -14.93}
{"compound": "CC(=O)N1CCN(C(=O)c2ccc(-c3cccc(C)c3)[nH]c2=O)CC1", "A": 5.216, "B": "-8.653 & -11.65"}
{"compound": "CCn1ncc2c1C(COC)CN(Cc1ccc(C)o1)C2", "stereo": "stereo not given", "A": 1.446, "B": -14.73}
{"compound": "Cc1nc(NCCc2ccccc2)cc(C(=O)N2CCCCC2)n1", "A": -23.04, "B": 34.84}
{"compound": "O=C(O)CN1CCC(c2ccccc2)CC1", "A": -2.163, "B": -1.321}
{"compound": "CC(NCCN1CCC(N(C)C)CC1)c1ccc(F)cc1N(C)C", "stereo": "stereo not given", "A": -37.98, "B": "9.472 & -31.27"}
{"compound": "O=C(Nc1cnc2n1CCCC2)c1cccc(NC(=O)C2CCCC2)c1", "A": -19.48, "B": "23.24 & -6.102"}
{"compound": "CCC(C)[C@H](N)c1nnc(SCC(=O)Nc2ccc(Br)cc2)o1.Cl", "stereo": "stereo not given in full", "A": 3.367, "B": 8.284}
{"compound": "COCCN(C)C(=O)Nc1ccc2c(ccn2CCOC)c1", "A": 6.196, "B": "0.2395 & -15.48"}
{"compound": "c1ccc(C(CC2CN(Cc3c[nH]cn3)CCO2)c2ccccc2)cc1", "stereo": "stereo not given", "A": 9.031, "B": "26.34 & 12.03"}
{"compound": "COC(=O)CCc1c(C)nc2cc(O)nn2c1C", "A": 2.683, "B": 7.641}
{"compound": "CC(c1ccccn1)N(C)Cc1ccc(CCC(C)(C)O)cc1", "stereo": "stereo not given", "A": "0.0458 & -12.59", "B": 0.7246}
{"compound": "O=C(NCCc1coc(-c2ccc(F)cc2)n1)NC1CCC(O)CC1", "stereo": "stereo not given", "A": -24.3, "B": -0.3151}
{"compound": "CC(C)c1nccn1-c1cccc(C2CCCN(S(=O)(=O)N(C)C)C2)n1", "stereo": "stereo not given", "A": -8.678, "B": -22.79}
{"compound": "Nc1ncc(-c2ccc(C(F)(F)F)cc2)c(C2CCCNC2)n1", "stereo": "stereo not given", "A": "11.69 & 16.87", "B": 26.72}
{"compound": "COCc1noc(CN2CC(=O)N(C)c3ccccc3C2=O)n1", "A": -10.47, "B": 17.87}
{"compound": "COCc1csc(NC(=O)NCc2ccccn2)n1", "A": -10.81, "B": "16.75 & -5.902"}
{"compound": "CN(Cc1cnn(C)c1)C(=O)CN1CCCCC1Cn1cncn1", "stereo": "stereo not given", "A": 6.532, "B": "5.774 & 12.54"}
{"compound": "O=C(O)c1cn(CC2CCCN(c3nccc4occc34)C2)nn1", "stereo": "stereo not given", "A": 6.025, "B": -14.77}
{"compound": "CC(C)N1C(=O)CN(CCOCCO)CC1(C)C", "A": 2.37, "B": "-5.953 & 4.148"}
{"compound": "CC(C)CN1CCc2[nH]nc(C(=O)N3CCCC3)c2C1.O=C(O)C(F)(F)F", "A": -6.869, "B": -10.76}
{"compound": "CN(c1ccc(CNc2ccc(Cl)cn2)cc1)S(C)(=O)=O", "A": -15.61, "B": 15.03}
{"compound": "Cc1nc(N2CCCC2)ncc1-c1cc(O)nc(NCC2CCCO2)n1", "stereo": "stereo not given", "A": -8.695, "B": 23.13}
{"compound": "CNC(=O)c1cccc(CCNC2CCSc3ccccc32)c1", "stereo": "stereo not given", "A": 30.7, "B": "-0.4968 & 18.56"}
{"compound": "CN(CCCN1CCCC1)[C@@H]1c2ccccc2C2(CCNCC2)[C@H]1O", "A": 4.731, "B": -23.18}
{"compound": "CCn1c(CN(C)Cc2cnc(C)s2)nc2cc(F)ccc21", "A": -9.178, "B": 2.951}
{"compound": "[H][C@]12CCN(C(=O)N3CCCC3)C[C@@]1([H])OCCN(S(C)(=O)=O)C2", "A": -13.8, "B": 6.106}
{"compound": "Cc1noc(C)c1S(=O)(=O)N1CCC(Oc2cnccn2)CC1", "A": 15.43, "B": "35.69 & -3.91"}
{"compound": "O=C(NCc1cc(=O)n2c(n1)CN(CC1CC1)CCC2)c1ccsc1.O=C(O)C(F)(F)F", "A": -20.35, "B": 3.396}

Measurements from “University of Dundee, Small-Polar-MMV Screening Library” (2021), ChEMBL document CHEMBL3988442.